No constants are given. Whether binding was seen depends on the method and setting. Binding can be weak; no strength is given.
Columns and labels:
[1] = target: GST-KIAA0561 PDZ domain fusion protein (KIAA0561 AA948-1038; PDZ domain 1 of 1); assay: G assay
[2] = target: GST-KIAA0561 PDZ domain fusion protein (KIAA0561 AA948-1038; PDZ domain 1 of 1); assay: A/G assays (told in text)

Binder	binding [1]	binding [2]
LNSCSNRRVYKKMPSIESDV (N-terminal biotin) [NMDA C-terminal PL peptide AA34.2L, biotinylated]	binds	
LASKSAEEGKQIPDSLSTDL (N-terminal biotin) [DOCK2 C-terminal PL peptide AA40L, biotinylated]	binds	
SSKSKSSEESQTFFGLYKL (N-terminal biotin) [FasLigand C-terminal PL peptide AA23L-M, biotinylated]	binds	binds

Reference: patent US20090149339A1
